Where two headings read alike, the source gives them in different places. No constants are given. Whether binding was seen depends on the method and setting. Binding seen in cells or lysates may run through a third protein. Binding calls can cover weak binding; strength is not graded here. For some of these results: Sequences can lack the tags named with a protein.
What was measured:
[1] = biological target: 3xFlag-DCTD (distal C-terminus of CaV1.3 α1D) (not stated (human or rat cDNA cloned)) (UniProt Q01668); experiment: co-IP
[2] = biological target: 3xFlag-DCTD (distal C-terminus of CaV1.3 α1D) (not stated (human or rat cDNA cloned)) (UniProt Q01668); experiment: co-IP; remark: listed apart in the source

By UniProt entry, the sequences of proteins in these tests, tags left out. Where a name states a change or a piece, a line headed by the entry shows the natural chain unless it says otherwise.
UniProt Q01668: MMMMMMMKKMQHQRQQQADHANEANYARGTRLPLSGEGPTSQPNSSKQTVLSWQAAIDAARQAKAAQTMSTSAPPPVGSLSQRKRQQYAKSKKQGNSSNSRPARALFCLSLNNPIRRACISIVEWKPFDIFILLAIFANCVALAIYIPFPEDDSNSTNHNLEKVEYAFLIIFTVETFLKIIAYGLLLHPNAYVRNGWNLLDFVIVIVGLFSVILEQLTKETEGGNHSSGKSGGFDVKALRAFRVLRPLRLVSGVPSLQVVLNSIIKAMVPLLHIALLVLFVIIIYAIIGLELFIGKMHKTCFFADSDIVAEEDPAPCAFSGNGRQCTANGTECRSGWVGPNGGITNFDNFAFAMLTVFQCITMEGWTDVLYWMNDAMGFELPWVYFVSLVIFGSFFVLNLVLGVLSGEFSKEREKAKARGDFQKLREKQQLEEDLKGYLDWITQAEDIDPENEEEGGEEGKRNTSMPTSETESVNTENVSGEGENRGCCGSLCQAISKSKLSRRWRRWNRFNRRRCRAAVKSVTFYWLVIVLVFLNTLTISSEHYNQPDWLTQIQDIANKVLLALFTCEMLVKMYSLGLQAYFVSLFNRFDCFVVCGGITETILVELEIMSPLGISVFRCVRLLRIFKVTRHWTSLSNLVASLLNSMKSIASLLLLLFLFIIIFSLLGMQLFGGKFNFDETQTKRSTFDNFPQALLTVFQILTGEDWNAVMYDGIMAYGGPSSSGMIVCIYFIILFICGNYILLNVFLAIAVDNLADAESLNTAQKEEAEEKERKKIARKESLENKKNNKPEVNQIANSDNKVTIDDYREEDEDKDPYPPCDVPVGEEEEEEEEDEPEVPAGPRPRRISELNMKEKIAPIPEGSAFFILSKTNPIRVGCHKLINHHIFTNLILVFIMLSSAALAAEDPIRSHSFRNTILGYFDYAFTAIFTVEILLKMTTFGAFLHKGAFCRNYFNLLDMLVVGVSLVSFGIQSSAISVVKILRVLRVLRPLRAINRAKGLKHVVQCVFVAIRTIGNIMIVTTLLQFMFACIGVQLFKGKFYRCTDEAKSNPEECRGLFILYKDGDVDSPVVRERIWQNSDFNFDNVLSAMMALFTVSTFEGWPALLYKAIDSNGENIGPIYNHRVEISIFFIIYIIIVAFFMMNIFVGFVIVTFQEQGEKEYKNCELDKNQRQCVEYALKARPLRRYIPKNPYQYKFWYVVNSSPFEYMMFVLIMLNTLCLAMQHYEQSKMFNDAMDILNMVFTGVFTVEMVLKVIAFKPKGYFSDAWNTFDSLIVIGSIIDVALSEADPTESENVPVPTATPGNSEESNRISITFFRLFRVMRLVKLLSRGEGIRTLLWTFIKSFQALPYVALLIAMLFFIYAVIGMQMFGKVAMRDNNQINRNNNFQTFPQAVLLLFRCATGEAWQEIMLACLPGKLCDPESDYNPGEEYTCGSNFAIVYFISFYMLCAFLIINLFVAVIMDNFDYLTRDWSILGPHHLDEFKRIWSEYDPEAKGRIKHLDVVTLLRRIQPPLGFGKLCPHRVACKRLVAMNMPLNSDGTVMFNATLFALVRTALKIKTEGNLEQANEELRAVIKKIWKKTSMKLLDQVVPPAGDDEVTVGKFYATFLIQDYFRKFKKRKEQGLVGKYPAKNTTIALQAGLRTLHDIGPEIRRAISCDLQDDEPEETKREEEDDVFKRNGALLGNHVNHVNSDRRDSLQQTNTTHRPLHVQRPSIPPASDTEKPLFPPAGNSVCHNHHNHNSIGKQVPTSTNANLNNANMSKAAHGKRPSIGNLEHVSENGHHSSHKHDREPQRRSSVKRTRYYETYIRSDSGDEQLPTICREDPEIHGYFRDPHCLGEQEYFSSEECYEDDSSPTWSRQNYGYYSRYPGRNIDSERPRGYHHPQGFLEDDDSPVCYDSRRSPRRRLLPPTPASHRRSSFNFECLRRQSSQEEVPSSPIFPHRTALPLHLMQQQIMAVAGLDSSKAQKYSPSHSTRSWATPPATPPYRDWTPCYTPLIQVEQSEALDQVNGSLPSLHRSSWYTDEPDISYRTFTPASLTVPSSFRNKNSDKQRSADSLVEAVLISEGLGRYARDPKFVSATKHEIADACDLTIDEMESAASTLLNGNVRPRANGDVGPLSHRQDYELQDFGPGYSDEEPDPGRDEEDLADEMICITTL

Row | binding [1] | binding [2] | Molecule
1 | binds |  | CFP-Ng_S36D (from UniProt Q04940 1-78)
2 | binds |  | Neurogranin (Ng), wild type, YFP-tagged, phosphorylated by PKC (cells treated with PMA) (from UniProt Q04940 1-78)
3 | binds |  | YFP-IQD (IQ domain of CaV1.3 α1D) (from UniProt Q01668-1) (domain or fragment)
4 | binds | binds | YFP-Ng_S36D-Myc-His (from UniProt Q04940 1-78)
5 | binds |  | AHKAATKIQASFRGHITRKKLKDEKKGDAP (domain or fragment, UniProt P07936 31-60) [YFP-IQNm (IQ domain of neuromodulin)]
6 | binds |  | ANAAAAKIQASFRGHMARKKIK (domain or fragment, UniProt Q04940 26-47) [YFP-IQNg]

Reference: article doi:10.1101/2025.06.20.660829
